Measured values reported in the supplement of paper PMC7666118.
Some of the results follow.

By UniProt entry, the sequences of proteins in these tests, tags left out. Where a name states a change or a piece, a line headed by the entry shows the natural chain unless it says otherwise.
UniProt Q02809: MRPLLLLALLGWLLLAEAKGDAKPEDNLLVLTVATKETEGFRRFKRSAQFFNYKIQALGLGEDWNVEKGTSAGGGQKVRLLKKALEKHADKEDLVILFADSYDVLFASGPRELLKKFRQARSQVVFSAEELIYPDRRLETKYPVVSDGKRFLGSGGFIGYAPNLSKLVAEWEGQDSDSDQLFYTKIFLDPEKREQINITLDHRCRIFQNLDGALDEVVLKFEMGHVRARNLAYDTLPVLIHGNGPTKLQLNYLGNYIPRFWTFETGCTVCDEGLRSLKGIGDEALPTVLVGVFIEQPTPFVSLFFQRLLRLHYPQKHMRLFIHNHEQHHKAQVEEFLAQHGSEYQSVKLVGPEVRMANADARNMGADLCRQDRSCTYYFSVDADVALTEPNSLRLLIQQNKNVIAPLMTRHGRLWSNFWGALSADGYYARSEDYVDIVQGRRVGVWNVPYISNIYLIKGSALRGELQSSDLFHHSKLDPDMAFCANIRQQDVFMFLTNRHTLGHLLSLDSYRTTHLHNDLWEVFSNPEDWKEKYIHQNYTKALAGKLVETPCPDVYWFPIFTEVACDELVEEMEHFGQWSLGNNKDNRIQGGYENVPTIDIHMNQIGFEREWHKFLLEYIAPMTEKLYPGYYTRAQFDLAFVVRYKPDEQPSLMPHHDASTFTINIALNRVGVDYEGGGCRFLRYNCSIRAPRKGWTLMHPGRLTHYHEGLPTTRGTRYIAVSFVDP
UniProt P08237: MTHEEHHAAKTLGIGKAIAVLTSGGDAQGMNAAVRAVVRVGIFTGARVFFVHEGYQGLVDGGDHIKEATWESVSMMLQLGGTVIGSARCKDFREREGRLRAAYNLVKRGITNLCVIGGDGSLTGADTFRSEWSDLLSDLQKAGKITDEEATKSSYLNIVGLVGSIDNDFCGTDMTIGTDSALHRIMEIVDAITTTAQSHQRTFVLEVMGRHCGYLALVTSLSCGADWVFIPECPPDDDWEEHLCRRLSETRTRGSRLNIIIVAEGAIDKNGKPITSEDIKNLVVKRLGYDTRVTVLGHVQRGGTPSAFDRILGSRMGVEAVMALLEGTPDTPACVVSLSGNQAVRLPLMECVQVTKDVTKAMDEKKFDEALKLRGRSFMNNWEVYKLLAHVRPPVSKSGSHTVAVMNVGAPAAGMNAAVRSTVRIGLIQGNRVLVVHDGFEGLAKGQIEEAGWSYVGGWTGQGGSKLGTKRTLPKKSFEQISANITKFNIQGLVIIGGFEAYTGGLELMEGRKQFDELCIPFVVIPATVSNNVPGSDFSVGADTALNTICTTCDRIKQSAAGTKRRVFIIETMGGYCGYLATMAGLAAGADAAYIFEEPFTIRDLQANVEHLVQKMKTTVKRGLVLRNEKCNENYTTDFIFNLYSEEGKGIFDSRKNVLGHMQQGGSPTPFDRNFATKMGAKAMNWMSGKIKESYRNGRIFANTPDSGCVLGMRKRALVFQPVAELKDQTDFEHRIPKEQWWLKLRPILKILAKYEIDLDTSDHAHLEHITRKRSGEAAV
UniProt Q15365, whole entry: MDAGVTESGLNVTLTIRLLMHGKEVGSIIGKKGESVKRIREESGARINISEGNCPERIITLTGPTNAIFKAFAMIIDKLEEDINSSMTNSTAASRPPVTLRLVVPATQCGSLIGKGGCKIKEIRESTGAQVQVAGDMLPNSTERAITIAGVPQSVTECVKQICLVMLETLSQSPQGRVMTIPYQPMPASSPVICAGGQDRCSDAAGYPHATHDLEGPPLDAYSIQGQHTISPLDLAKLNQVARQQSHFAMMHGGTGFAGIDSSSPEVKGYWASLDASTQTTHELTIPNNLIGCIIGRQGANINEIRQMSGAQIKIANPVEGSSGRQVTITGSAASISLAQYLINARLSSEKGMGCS
UniProt Q9UBD5: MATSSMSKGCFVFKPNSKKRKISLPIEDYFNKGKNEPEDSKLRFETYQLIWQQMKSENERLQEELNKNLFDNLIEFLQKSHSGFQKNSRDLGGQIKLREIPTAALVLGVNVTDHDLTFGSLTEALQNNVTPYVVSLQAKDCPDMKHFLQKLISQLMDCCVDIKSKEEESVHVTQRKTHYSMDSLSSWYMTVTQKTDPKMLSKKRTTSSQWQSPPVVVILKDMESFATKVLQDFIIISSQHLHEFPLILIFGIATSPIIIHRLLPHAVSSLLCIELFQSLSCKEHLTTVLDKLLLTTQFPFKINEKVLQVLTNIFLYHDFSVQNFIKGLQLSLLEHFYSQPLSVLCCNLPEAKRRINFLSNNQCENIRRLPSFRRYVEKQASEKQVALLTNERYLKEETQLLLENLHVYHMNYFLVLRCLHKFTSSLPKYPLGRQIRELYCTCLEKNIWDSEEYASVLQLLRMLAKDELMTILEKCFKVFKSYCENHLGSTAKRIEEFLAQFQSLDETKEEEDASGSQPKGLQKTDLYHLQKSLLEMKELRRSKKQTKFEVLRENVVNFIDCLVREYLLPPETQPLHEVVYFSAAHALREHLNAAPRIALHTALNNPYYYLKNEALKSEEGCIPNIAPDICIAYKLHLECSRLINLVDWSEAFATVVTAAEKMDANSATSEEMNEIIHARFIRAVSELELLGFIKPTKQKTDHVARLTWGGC
UniProt Q9HBE1: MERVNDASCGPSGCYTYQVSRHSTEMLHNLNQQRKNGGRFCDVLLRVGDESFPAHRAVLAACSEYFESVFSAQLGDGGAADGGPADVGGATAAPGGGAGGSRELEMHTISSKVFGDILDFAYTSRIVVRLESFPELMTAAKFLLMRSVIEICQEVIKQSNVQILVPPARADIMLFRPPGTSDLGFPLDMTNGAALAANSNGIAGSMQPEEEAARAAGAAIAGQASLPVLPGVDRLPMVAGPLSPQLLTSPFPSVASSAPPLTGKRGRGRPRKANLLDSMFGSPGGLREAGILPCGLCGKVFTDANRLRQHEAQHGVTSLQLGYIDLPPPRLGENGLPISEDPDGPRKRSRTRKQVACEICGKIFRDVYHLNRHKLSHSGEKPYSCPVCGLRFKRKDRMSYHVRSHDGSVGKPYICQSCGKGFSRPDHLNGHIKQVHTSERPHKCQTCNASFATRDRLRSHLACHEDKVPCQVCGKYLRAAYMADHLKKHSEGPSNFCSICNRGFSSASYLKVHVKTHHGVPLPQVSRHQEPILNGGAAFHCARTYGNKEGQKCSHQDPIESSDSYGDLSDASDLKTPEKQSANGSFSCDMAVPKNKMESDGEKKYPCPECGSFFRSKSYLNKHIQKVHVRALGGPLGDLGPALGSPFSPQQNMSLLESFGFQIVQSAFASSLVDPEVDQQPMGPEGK
UniProt P22059, whole entry: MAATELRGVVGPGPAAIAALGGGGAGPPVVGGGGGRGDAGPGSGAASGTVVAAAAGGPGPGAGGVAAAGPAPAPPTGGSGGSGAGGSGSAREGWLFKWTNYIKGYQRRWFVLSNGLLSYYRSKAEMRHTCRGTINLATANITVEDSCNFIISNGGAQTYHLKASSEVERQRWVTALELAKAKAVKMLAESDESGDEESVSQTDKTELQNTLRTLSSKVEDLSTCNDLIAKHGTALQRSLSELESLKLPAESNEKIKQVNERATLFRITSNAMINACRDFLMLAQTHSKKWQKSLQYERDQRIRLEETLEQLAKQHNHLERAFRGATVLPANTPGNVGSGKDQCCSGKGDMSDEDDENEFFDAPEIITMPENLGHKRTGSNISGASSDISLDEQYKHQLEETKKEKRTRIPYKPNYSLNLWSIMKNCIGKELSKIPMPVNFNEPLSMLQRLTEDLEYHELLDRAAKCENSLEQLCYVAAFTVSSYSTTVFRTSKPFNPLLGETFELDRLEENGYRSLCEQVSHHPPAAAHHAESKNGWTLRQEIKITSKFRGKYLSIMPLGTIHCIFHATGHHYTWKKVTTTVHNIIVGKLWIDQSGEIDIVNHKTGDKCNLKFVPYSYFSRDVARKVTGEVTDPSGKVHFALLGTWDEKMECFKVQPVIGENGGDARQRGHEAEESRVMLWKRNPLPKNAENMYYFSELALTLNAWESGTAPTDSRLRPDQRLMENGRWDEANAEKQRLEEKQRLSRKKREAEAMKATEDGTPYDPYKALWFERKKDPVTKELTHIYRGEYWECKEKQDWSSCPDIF
UniProt P42338: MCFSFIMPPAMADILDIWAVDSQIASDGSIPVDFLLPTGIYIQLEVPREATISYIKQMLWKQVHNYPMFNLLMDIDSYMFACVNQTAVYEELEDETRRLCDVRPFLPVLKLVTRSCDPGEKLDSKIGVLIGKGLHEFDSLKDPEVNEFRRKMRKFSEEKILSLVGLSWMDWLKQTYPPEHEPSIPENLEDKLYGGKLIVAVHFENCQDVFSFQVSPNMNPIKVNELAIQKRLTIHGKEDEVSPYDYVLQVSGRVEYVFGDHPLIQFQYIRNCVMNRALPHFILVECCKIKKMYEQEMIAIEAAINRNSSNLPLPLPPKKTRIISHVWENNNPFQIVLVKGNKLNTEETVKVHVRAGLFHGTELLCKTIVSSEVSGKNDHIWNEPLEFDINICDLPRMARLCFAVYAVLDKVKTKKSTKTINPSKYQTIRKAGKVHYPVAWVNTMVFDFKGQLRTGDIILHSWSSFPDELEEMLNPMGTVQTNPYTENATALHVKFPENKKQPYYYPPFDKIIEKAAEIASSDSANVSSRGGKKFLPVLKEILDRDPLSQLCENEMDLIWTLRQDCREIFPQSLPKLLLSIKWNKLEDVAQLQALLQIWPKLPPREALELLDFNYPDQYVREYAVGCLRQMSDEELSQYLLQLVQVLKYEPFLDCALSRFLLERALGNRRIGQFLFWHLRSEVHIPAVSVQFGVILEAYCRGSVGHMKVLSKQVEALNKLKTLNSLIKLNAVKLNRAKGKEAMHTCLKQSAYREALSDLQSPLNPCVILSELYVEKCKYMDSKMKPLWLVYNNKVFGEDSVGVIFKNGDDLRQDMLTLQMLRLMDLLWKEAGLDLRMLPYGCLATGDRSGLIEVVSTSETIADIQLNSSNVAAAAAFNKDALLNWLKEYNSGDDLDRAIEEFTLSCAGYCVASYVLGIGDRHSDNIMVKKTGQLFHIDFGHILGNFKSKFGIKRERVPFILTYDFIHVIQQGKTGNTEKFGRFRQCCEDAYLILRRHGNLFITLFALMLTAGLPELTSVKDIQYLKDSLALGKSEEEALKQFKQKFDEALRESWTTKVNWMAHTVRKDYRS
UniProt Q8NB37: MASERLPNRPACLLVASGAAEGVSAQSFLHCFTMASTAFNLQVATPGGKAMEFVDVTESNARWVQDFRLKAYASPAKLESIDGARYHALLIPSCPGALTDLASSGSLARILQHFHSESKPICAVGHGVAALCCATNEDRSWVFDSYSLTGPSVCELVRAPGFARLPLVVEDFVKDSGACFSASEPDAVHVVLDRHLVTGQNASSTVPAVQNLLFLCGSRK
UniProt P22234: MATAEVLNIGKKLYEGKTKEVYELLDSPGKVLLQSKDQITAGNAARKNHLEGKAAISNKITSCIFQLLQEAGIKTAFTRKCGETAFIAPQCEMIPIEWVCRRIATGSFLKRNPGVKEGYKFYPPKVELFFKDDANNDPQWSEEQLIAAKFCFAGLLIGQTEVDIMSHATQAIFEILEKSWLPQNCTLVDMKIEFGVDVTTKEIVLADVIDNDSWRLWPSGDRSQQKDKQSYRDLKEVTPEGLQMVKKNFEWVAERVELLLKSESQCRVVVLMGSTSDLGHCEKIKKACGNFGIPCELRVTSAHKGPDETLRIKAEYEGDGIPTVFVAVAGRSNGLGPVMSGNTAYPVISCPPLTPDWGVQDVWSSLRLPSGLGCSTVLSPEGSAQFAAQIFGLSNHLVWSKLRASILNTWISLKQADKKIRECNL
UniProt Q96SU4: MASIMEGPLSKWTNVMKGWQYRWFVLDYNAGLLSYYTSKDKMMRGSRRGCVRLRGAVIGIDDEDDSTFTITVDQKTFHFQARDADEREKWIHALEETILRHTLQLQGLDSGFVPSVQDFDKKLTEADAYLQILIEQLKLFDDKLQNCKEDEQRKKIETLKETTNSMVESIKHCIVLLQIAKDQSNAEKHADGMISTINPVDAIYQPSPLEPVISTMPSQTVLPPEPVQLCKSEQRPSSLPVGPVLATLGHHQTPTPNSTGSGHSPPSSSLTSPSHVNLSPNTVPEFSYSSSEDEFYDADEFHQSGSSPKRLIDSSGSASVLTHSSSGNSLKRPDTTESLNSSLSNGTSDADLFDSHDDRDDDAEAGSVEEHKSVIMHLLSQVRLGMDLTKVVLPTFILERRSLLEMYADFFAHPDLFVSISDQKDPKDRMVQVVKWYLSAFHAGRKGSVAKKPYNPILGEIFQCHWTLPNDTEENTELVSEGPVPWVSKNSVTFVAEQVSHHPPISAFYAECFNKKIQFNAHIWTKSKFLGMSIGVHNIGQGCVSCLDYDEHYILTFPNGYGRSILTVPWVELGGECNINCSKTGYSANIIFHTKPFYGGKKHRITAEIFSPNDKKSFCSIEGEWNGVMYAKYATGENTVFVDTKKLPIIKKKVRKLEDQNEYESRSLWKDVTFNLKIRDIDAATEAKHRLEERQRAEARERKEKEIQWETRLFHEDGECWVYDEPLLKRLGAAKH

These targets were tested with COc1ccc(Cn2ccc3cc(C)c(C(=O)NO)cc32)cc1 (assay: dose-dependent thermal stabilisation call (2D-TPP, DLPTP, 10% FDR) (binary (1 = stabilised)); higher = stabilised by the compound). Conditions: system: HL-60 intact cells; concentration range 0.04-10 µM.
Description: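 2D thermal proteome profiling in intact HL-60 cells treated with BRD-3811 (0, 0.04, 0.29, 2, 10 uM) for 90 min at 37 C, then heated 3 min at one of 12 temperatures (42-63.9 C). Soluble protein was quantified by TMT10 MS. The value is the DLPTP call of the paper: dose-dependent thermal stabilisation over all temperatures at 10% FDR (F-test of a dose-response against a flat model); one experiment, one call per tested protein.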

Target | dose-dependent thermal stabilisation call
PCNA (UniProt P12004) | inactive: 0
OTUB1 (UniProt Q96FW1) | inactive: 0
ORC2L (UniProt Q13416) | inactive: 0
PLOD1 (UniProt Q02809) | inactive: 0
OPA3 (UniProt Q9H6K4) | inactive: 0
PFKM (UniProt P08237) | inactive: 0
PELO (UniProt Q9BRX2) | inactive: 0
PCBP1 (UniProt Q15365) | inactive: 0
ORC3L (UniProt Q9UBD5) | inactive: 0
OXSR1 (UniProt O95747) | inactive: 0
PCNT (UniProt O95613) | inactive: 0
PANK2 (UniProt Q9BZ23) | inactive: 0
PDRG1 (UniProt Q9NUG6) | inactive: 0
PATZ1 (UniProt Q9HBE1) | inactive: 0
PIK3C2A (UniProt O00443) | inactive: 0
PIR (UniProt O00625) | inactive: 0
PKMYT1 (UniProt Q99640) | inactive: 0
OSBP (UniProt P22059) | inactive: 0

Random excerpt: two records from the list.
Target | dose-dependent thermal stabilisation call
OXSR1 (UniProt O95747) | inactive: 0
PCBP1 (UniProt Q15365) | inactive: 0

(next part)

Target | dose-dependent thermal stabilisation call
PEBP1 (UniProt P30086) | inactive: 0
PIK3CB (UniProt P42338) | inactive: 0
PDIA4 (UniProt P13667) | inactive: 0
PCYOX1 (UniProt Q9UHG3) | inactive: 0
PDDC1 (UniProt Q8NB37) | inactive: 0
PDLIM7 (UniProt Q9NR12) | inactive: 0
PAICS (UniProt P22234) | inactive: 0
OTUD5 (UniProt Q96G74) | inactive: 0
P4HTM (UniProt Q9NXG6) | inactive: 0
OGFR (UniProt Q9NZT2) | inactive: 0
PCIF1 (UniProt Q9H4Z3) | inactive: 0
PDLIM5 (UniProt Q96HC4) | inactive: 0
PEA15 (UniProt Q15121) | inactive: 0
OSBPL9 (UniProt Q96SU4) | inactive: 0
PA2G4 (UniProt Q9UQ80) | inactive: 0
PDK1 (UniProt Q15118) | inactive: 0
PECI (UniProt O75521) | inactive: 0
PIGS (UniProt Q96S52) | inactive: 0
